# In PubChem BioAssay AID540256 (National Center for Advancing Translational Sciences (NCATS), 2011):
# Out of some 300,000 compounds screened, about 3,700 (1.2%) were called active. This list was built around the results that the source calls inconclusive (neither active nor inactive); the mix of calls is not that of the screen. Calls come from the whole dose curve; tested in HEK293 cells. Potencies beside an inconclusive call are fits to weak or partial responses and may not hold up.
# Test: qHTS for Inhibitors of binding or entry into cells for Lassa Virus; note: nearly all actives have a fitted effect of over 50% in size
# Conditions: Lassa virus pseudotype entry inhibition, cell reporter; activity change, negative = inhibition: at 37.9 µM (top of the series) unless noted
# % is set by controls: 0 for no effect and ±100 for the full control effect; potency is the fitted concentration of half-maximal effect.
SMILES,"activity change, negative = inhibition",Potency
CCc1ccc(CNC(=O)C2CCC(=O)N2C2CCCCC2)cc1 (stereo unspecified),inactive: -1.95%,–
O=C(Nc1ccccc1C(=O)OCc1cc(=O)n2c3c(sc2n1)CCCC3)c1ccccc1,inactive: -2.93% [at 46.1 µM],–
COc1ccc(Cl)cc1NC(=O)Cn1c(=O)n(Cc2nc(C)no2)c(=O)c2ccccc21,–,"inconclusive: 6.31 µM [activator, single point]"
Cc1c(Cl)cccc1NC(=O)c1ccc2c(c1)nnn2C1CCCC1,–,"inconclusive: 0.891 µM [inhibitor, full curve, poor fit]"
O=S1(=O)CCN=C2SC3=C(CCCC3)N21,–,"inconclusive: 0.0052 µM [inhibitor, full curve, poor fit]"
COc1ccc(N2CCN(c3nc(C)c(C)c(=O)[nH]3)CC2)cc1,–,"inconclusive: 35.5 µM [inhibitor, partial curve, poor fit]"
Cc1ccc(NC(=O)COC(=O)c2ccn(C)n2)cc1,–,"inconclusive: 16.4 µM [activator, partial curve, poor fit]"
CCn1nccc1C(=O)Nc1cc(Cl)cc(Cl)c1,inactive: -9.35%,–
CCNC(=S)N(CCc1c(C)[nH]c2ccc(C)cc12)Cc1cc(OC)c(OC)c(OC)c1,–,"inconclusive: 16.4 µM [inhibitor, partial curve, poor fit]"
CC(C)CN(CC(C)C)c1nc(-c2ccc(Cl)cc2)nc2ccccc12,inactive: 12% [at 46.1 µM],–
O=C1C(Cl)=C(NS(=O)(=O)c2ccc([N+](=O)[O-])cc2)C(=O)c2ccccc21,–,"inconclusive: 14.1 µM [inhibitor, partial curve, poor fit]"
O=C(CSc1nnc(C23CC4CC(CC(C4)C2)C3)o1)Nc1ccc(N2CCOCC2)c(Cl)c1,–,"inconclusive: 20.6 µM [inhibitor, single point]"
CCN1CCN(C(c2ccc(C(F)(F)F)cc2)c2ccc3cccnc3c2O)CC1 (stereo unspecified),–,"inconclusive: 10 µM [inhibitor, partial curve, poor fit]"
CCOc1ccc(NC(=S)/C(=C(\[O-])c2ccc(C)c([N+](=O)[O-])c2)[n+]2ccccc2)cc1,inactive: -2.04%,–
Cc1cccc(-n2nnc(C(=O)N3CCc4ccccc4C3)c2N)c1,inactive: 21.6%,–
CN1CC(C(=O)c2cccc(C(F)(F)F)c2)C(c2ccc(Cl)cc2)C1 (stereo unspecified),–,"inconclusive: 35.5 µM [inhibitor, single point]"
C=CCc1c(C)nc2nc(SCC(=O)Nc3cccc(Cl)c3)nn2c1C,inactive: 8.36% [at 46.1 µM],–
COCCn1nnnc1C(c1ccc(OC)cc1OC)N1CCN(c2ccccc2)CC1 (stereo unspecified),inactive: 7.61%,–
CCc1cc2c(=O)[nH]c(-c3ccccn3)nc2s1,–,active: 5.62 µM
O=c1c2c([nH]c3ccc(Br)cc13)CCCC2,–,"inconclusive: 0.447 µM [inhibitor, full curve, poor fit]"
O=C(c1ccco1)N1CCN(C(=O)c2ccc(-c3ccc([N+](=O)[O-])cc3)o2)CC1,–,"inconclusive: 17.8 µM [inhibitor, single point]"
CCN(CC)S(=O)(=O)c1ccc(C(=O)Nc2cc(C)cc(C)c2)cc1,–,"inconclusive: 35.5 µM [inhibitor, single point]"
CC1=C(c2ccc(Cl)cc2)[N+](=O)C(C)(C)N1[O-],inactive: 11.1%,–
Cc1csc(NC(=O)c2ccc(Br)s2)n1,–,"inconclusive: 4.47 µM [inhibitor, full curve, poor fit]"
COc1ccc(-c2cc(N3C(=O)Nc4ccccc4N3O)n[nH]2)cc1,inactive: -10.1%,–
Cc1occc1-c1nnc(SCC(=O)c2ccc(F)cc2)o1,inactive: 10.5%,–

# Whole records, quoted from the list:
# O=C(CSc1nnc(C23CC4CC(CC(C4)C2)C3)o1)Nc1ccc(N2CCOCC2)c(Cl)c1 in the list: Potency: inconclusive: 20.6 µM [inhibitor, single point]
# CCNC(=S)N(CCc1c(C)[nH]c2ccc(C)cc12)Cc1cc(OC)c(OC)c(OC)c1 in the list: Potency: inconclusive: 16.4 µM [inhibitor, partial curve, poor fit]
# O=C(Nc1ccccc1C(=O)OCc1cc(=O)n2c3c(sc2n1)CCCC3)c1ccccc1 in the list: activity change, negative = inhibition: inactive: -2.93% [at 46.1 µM]

# Next part

SMILES,"activity change, negative = inhibition",Potency
Cc1ccc(C)c(S(=O)(=O)N2CCN(CC(=O)NC(=O)NCc3ccccc3)CC2)c1,–,active: 25.9 µM
COc1ccc(CCNC(=O)CC(Cc2ccccc2)C(=O)O)cc1OC (stereo unspecified),inactive: 12.1%,–
Cc1nn(Cc2ccc(Cl)cc2Cl)c(C)c1NC(=O)CCl,–,"inconclusive: 29.1 µM [inhibitor, single point]"
CC1CCN(CC2CCN(C(=O)NCc3ccccc3)CC2)CC1,inactive: 21.1% [at 46.1 µM],–
CCC1CN(C(=O)Nc2ccccc2F)c2cc(C)ccc2O1 (stereo unspecified),inactive: -9.39% [at 46.1 µM],–
CCOc1ccc(N(CC(=O)NCC2CCCO2)C(=O)CCC(=O)Nc2nccs2)cc1 (stereo unspecified),–,"inconclusive: 29.1 µM [inhibitor, single point]"
COC(=O)c1c(C)nn(-c2ccc(OC(F)(F)F)cc2)c1-c1snnc1C,–,"inconclusive: 25.1 µM [inhibitor, single point]"
O=C(COc1ccc(Cl)cc1Cl)NC(=O)N1CCCCC1,–,"inconclusive: 29.1 µM [inhibitor, single point]"
COc1ccc(CCNC(=O)COc2ncnc3ccccc23)cc1OC,–,"inconclusive: 35.5 µM [inhibitor, single point]"
O=C(NCc1ccc2c(c1)OCO2)C(=O)Nc1ccccc1,inactive: 6.18%,–
CC1Cc2ccccc2N1CC(=O)NC(=O)NCc1ccccc1 (stereo unspecified),–,"inconclusive: 20 µM [inhibitor, single point]"
CCOC(=O)C(NC(=O)Cc1ccccc1)(Nc1cc(C)on1)C(F)(F)F (stereo unspecified),inactive: -4.58%,–
O=C(Nc1ccc(F)cc1Cl)C1=COCCO1,inactive: 13.6%,–
CC(=O)c1cccc(S(=O)(=O)Nc2cccc(S(=O)(=O)NC3=NCCC3)c2)c1,inactive: -2.21%,–
Clc1ccc(-c2nc(C3CCCCC3)no2)cc1,inactive: 13.6%,–
O=C(CSc1nc2c(c(=O)n1-c1ccc(Cl)cc1)SCC2)NCC1CCCO1 (stereo unspecified),–,"inconclusive: 0.501 µM [inhibitor, partial curve, poor fit]"
COc1ccc(C(=O)NC(=S)Nc2ccccc2N2CCOCC2)cc1Br,–,"inconclusive: 11.2 µM [inhibitor, single point]"
COc1ccc(OC)c(C=NNC(=O)c2ccc(NS(=O)(=O)c3cccs3)cc2)c1,inactive: -3.94%,–
Cc1cccc(N2C(=O)CC(c3ccc(F)cc3)C3=C2COC3=O)c1 (stereo unspecified),–,"inconclusive: 0.794 µM [activator, full curve, poor fit]"
CCOc1ccccc1N1CCN(Cc2cccc(OC)c2O)CC1,inactive: -6.37%,–
O=C(c1cccc(F)c1)N1CCc2ccccc2C1,inactive: 9.71%,–
C=CCn1c(SCC(=O)c2ccc(OC)cc2)nnc1-c1ccc2c(c1)OCO2,inactive: 0.166%,–
CCS(=O)(=O)c1ccc2oc(SCC(=O)Nc3ccc(OC)c(OC)c3)nc2c1,–,"inconclusive: 1.26 µM [inhibitor, single point]"
Cc1c(NS(=O)(=O)c2cccc(C(=O)Nc3cccc(F)c3)c2)c(=O)n(-c2ccccc2)n1C,–,"inconclusive: 8.91 µM [inhibitor, partial curve, poor fit]"
O=C(/C=C/c1cccc2ccccc12)N1CCOCC1,inactive: -1.55%,–
c1ccc(Nc2cc(Nc3ccccc3)[nH]n2)cc1,–,"inconclusive: 20.6 µM [inhibitor, single point]"

SMILES,"activity change, negative = inhibition",Potency
CN(C)S(=O)(=O)c1cccc(-c2nnc(SCC(=O)NCCCCCC(=O)O)n2-c2ccc(F)cc2)c1,inactive: 23.4%,–
CCC1(c2ccc(Cl)cc2)NC(=O)N(CC(=O)NCc2ccc(F)cc2)C1=O (stereo unspecified),–,"inconclusive: 11.2 µM [inhibitor, partial curve, poor fit]"
CCn1nc(C)cc1C(=O)N1CCc2c([nH]c3ccccc23)C1c1cc(F)ccc1F (stereo unspecified),inactive: 3.06%,–
O=C(NCCc1ccccc1)c1ccc2c(c1)N(Cc1ccc(Cl)cc1)C(=O)CS2,–,"inconclusive: 35.5 µM [inhibitor, partial curve, poor fit]"
Cc1cccc(N2CCN(C(=S)NCCc3ccccc3)CC2)c1C,–,"inconclusive: 15.8 µM [activator, single point]"
Cc1cccc(-n2c(CN3C(=O)c4ccccc4C3=O)nc3ccccc3c2=O)n1,–,"inconclusive: 14.1 µM [inhibitor, single point]"
COc1ccc(-c2oc3cc(OC(C)=O)cc(OC(C)=O)c3c(=O)c2OC)cc1,–,"inconclusive: 20 µM [inhibitor, partial curve, poor fit]"
CC(=NNC(=S)N1CCC1)c1ccccn1,–,"inconclusive: 0.1 µM [inhibitor, full curve, poor fit]"
CCOc1ccc(C(=O)NCc2cccnc2)cc1[N+](=O)[O-],–,"inconclusive: 22.4 µM [inhibitor, single point]"
CCc1ccc(NC(=O)CSc2ccnc(=O)[nH]2)cc1,inactive: 29.7% [at 46.1 µM],–
COc1ccccc1NC(=O)c1ccccc1SC,inactive: 11.6%,–
COc1ccc(-c2cc(C(F)(F)F)n3nc(C(=O)N4CCOCC4)c(Cl)c3n2)cc1,–,"inconclusive: 7.94 µM [inhibitor, partial curve]"
O=C1NCCN1c1ccccc1,–,"inconclusive: 6.31 µM [activator, partial curve, poor fit]"
CC(C)(C#CCN1CCCCC1)OCCOC(c1ccccc1)c1ccccc1,–,"inconclusive: 16.4 µM [inhibitor, single point]"
COc1ccc(N2C3=[N+](CCCC3)CC2(C)O)cc1 (stereo unspecified),inactive: 2.97%,–
COc1ccc2nc3c(c(-c4ccccc4)c2c1)CCC3,inactive: -0.448%,–
O=C(N/N=C\c1ccccc1OCc1ccccc1)c1ccco1,inactive: -15.1%,–
Cc1cccc(N2CCN(C(=O)c3ccc4nccnc4c3)CC2C)c1 (stereo unspecified),inactive: -1.89% [at 46.1 µM],–
Cc1cc(C(=O)Nc2sc3c(c2C#N)CCC3)no1,inactive: -13.1% [at 14.3 µM],–
CCN(CC(=O)Nc1cc(C)nn1-c1nc(C)cc(C)n1)Cc1ccccc1,–,"inconclusive: 35.5 µM [inhibitor, single point]"
CCCC(CCC(=O)Nc1nccs1)C(=O)O (stereo unspecified),inactive: 9.04%,–
COc1ccc(CCC(=O)NCCc2csc(-c3ccc(F)cc3)n2)cc1,inactive: 12.3% [at 46.1 µM],–
O=C(CCc1ccccc1)Nc1ncc([N+](=O)[O-])s1,–,"inconclusive: 35.5 µM [inhibitor, single point]"
CCCCN(CCCC)S(=O)(=O)c1ccc(C(=O)Nc2nnc(CSC)o2)cc1,–,"inconclusive: 35.5 µM [inhibitor, single point]"
